The text below walks through data of publication PMC7990213.

The chains behind the UniProt entries cited, without tags or fusion partners.
UniProt P0C2J9: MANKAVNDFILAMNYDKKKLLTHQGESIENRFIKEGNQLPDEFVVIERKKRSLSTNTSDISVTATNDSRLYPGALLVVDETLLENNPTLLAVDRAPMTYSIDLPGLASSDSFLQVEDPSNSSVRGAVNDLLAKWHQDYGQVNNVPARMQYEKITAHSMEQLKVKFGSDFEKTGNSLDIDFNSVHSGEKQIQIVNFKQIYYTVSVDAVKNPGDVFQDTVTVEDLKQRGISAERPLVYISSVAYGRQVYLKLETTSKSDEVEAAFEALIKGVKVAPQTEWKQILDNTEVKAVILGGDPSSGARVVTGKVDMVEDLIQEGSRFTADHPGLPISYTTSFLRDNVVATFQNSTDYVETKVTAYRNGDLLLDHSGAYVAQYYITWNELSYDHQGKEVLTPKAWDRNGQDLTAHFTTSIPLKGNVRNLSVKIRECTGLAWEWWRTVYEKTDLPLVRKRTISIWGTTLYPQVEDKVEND
UniProt P68363: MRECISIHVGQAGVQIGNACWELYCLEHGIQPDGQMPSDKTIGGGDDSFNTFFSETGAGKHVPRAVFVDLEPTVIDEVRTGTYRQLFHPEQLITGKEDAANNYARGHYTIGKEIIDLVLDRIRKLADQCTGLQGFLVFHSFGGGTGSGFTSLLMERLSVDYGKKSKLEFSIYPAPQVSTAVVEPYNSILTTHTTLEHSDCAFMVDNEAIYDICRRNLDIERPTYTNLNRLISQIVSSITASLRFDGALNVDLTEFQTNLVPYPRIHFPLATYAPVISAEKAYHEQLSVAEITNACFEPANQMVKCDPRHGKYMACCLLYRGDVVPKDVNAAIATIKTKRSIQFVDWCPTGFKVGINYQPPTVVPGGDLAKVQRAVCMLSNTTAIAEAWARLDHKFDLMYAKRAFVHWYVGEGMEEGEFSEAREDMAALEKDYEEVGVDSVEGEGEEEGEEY

The assay concerns the target His-tagged pneumolysin (Ply) (Streptococcus pneumoniae) (UniProt P0C2J9). In words: pull-down; both purified.

No constants are given. Whether binding was seen depends on the method and setting.

For “α-tubulin-1B chain (purified recombinant) (from UniProt P68363 1-451)”, the binding entry is “no binding (tested: 2 μM)”.
